Experiment [1] has as its system KB cells (parental cervical cancer cell line). Put plainly: Inhibition of cell proliferation, xCelligence cell index. The format is cell-based. The following applies: Homo sapiens, 72 h, read-out: calculated IC50.
Experiment [2] concerns KB200 cells over-expressing multiple drug resistant (MDR) gene. The experiment is described as above. The format is cell-based. The following applies: Homo sapiens, 72 h, read-out: calculated IC50.

For one molecule, IC50 results are on record in patent publication US20110207751A1, “HETEROCYCLIC COMPOUNDS AND USES AS ANTICANCER AGENTS” (priority 2010, published 2011).

Take `COc1cc2c(c(OC)c1OC)-c1ccc(OC)c(=O)cc1[C@@H](NC(C)=O)CC2` [colchicine]: the IC50 was 8.2 nM in experiment [1] and 116 nM in experiment [2].

Broadly, the IC50 is the concentration that gives 50% inhibition.
